Measured values as given in the supplement of paper PMC10849652.
This is one part of the list.

Sequences of proteins named here, by UniProt entry; tags and fusion partners are left off. A change or cut given only in a name is not applied to a line headed by its entry.
UniProt P62308, whole entry, looked up: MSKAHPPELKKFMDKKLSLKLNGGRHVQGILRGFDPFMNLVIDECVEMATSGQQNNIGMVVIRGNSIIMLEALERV
UniProt Q9Y5W8: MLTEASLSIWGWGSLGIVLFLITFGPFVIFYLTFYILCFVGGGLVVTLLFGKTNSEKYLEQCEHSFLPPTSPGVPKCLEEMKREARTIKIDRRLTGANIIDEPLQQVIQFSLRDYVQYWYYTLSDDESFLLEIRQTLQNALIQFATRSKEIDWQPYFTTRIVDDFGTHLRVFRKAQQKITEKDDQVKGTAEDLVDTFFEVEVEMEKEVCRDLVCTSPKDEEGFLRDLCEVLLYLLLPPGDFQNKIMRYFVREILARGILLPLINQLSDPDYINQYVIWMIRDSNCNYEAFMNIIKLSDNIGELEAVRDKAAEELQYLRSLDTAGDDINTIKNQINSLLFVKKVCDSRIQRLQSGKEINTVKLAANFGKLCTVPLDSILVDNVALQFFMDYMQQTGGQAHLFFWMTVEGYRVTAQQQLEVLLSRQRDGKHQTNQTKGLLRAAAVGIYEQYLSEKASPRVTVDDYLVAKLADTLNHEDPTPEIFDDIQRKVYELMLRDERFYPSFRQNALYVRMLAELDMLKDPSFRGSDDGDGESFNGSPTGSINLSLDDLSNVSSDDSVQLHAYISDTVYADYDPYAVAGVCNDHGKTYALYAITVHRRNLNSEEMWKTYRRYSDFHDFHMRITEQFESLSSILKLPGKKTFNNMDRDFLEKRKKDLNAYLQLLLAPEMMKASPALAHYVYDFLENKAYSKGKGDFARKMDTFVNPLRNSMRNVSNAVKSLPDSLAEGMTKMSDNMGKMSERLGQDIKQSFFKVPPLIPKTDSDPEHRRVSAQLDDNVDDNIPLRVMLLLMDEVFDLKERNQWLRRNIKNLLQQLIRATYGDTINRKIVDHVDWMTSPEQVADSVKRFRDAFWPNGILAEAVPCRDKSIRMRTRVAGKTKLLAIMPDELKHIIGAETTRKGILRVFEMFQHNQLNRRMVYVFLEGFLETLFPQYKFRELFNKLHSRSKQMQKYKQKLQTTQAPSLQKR
UniProt Q13424: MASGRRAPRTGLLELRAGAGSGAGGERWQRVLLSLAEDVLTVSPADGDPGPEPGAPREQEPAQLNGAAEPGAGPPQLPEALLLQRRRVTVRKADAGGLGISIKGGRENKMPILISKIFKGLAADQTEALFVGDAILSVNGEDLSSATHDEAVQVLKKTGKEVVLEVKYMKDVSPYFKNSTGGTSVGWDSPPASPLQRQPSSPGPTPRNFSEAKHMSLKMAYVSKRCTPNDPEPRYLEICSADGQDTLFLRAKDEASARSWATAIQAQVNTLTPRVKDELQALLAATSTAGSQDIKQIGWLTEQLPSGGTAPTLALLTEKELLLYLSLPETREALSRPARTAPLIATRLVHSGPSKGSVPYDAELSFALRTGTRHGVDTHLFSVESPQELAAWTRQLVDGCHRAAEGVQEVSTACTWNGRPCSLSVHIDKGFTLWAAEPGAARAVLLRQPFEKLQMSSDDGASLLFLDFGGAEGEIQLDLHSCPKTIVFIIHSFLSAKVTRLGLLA
UniProt P09012, whole entry, looked up: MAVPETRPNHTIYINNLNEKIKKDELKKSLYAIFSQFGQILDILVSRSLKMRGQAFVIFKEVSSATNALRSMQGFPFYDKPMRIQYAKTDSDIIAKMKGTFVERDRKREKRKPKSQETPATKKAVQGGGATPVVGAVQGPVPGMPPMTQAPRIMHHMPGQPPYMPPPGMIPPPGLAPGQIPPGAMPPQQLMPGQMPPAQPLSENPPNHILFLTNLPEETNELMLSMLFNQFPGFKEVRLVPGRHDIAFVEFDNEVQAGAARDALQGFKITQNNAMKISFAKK
UniProt P02814: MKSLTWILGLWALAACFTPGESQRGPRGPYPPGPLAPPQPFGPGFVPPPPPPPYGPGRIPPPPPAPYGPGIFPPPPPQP
UniProt P51531, whole entry, looked up: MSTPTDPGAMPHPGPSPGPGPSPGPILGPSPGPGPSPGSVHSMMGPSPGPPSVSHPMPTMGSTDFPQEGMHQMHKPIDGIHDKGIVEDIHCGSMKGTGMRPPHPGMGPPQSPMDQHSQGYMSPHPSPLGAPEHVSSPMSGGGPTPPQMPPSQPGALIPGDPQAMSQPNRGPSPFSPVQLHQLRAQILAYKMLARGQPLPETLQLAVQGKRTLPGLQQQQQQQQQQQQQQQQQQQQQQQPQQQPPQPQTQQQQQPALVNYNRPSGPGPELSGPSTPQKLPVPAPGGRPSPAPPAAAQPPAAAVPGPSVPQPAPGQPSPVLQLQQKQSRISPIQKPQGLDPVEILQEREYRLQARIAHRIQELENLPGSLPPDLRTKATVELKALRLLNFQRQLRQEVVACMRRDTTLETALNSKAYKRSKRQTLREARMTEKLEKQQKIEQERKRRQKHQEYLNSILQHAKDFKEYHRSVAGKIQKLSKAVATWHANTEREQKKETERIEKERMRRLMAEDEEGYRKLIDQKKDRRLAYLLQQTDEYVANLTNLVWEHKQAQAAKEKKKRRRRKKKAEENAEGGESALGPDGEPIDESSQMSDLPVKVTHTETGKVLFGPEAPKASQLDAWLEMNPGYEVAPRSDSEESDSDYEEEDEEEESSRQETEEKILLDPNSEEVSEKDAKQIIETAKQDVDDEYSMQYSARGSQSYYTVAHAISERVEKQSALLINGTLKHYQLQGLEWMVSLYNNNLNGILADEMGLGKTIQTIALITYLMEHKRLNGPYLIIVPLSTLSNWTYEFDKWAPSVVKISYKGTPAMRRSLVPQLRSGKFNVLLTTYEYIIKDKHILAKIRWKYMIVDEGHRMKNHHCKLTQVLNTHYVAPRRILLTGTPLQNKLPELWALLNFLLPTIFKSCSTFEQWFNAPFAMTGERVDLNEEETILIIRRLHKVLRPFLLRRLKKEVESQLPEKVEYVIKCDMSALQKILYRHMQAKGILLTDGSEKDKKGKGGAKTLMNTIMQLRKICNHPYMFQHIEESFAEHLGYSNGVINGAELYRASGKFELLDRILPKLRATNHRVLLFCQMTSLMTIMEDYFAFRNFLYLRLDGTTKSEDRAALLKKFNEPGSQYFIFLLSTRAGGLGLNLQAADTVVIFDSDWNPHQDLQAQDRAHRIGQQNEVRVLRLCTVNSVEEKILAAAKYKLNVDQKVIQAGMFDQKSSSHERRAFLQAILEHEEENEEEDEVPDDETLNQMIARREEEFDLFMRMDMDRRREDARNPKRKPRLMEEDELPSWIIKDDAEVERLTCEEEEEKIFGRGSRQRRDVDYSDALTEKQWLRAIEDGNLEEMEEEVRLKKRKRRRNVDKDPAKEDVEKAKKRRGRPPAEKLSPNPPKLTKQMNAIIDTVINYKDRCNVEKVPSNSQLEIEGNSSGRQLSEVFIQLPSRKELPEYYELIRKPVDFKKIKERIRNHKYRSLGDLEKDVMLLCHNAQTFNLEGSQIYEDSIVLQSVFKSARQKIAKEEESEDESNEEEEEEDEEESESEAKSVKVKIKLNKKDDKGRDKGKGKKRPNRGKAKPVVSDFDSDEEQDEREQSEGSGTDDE
UniProt Q9UQE7: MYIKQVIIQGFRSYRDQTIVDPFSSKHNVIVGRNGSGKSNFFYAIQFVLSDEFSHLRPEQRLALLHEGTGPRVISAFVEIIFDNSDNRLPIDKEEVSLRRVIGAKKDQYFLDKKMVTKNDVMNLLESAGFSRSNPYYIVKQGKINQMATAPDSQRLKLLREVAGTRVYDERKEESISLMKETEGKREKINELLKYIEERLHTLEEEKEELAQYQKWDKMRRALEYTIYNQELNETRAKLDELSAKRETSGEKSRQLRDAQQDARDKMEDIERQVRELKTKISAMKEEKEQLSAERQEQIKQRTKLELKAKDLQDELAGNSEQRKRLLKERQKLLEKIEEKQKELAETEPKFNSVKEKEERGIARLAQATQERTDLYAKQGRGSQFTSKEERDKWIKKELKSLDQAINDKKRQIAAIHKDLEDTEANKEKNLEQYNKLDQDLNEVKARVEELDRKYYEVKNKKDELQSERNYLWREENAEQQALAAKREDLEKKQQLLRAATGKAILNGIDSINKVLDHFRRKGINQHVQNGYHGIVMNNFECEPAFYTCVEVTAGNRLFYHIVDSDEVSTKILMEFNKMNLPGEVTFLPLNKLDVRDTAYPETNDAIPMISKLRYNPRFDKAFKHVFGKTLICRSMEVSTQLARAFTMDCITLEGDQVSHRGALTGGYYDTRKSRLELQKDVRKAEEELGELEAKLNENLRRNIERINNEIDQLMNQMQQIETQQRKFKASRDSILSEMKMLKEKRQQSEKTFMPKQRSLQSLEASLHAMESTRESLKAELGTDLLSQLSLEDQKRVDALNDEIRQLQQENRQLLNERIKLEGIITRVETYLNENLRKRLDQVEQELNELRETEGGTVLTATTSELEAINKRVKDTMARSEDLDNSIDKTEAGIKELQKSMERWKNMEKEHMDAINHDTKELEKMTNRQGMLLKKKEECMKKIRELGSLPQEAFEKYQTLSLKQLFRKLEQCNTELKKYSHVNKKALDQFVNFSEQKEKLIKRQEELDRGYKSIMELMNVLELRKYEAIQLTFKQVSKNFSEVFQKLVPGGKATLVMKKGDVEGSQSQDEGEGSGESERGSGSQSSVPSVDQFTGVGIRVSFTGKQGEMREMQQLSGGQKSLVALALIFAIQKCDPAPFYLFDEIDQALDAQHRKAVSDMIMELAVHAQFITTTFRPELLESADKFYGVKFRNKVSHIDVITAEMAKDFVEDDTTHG
UniProt O60264, whole entry, looked up: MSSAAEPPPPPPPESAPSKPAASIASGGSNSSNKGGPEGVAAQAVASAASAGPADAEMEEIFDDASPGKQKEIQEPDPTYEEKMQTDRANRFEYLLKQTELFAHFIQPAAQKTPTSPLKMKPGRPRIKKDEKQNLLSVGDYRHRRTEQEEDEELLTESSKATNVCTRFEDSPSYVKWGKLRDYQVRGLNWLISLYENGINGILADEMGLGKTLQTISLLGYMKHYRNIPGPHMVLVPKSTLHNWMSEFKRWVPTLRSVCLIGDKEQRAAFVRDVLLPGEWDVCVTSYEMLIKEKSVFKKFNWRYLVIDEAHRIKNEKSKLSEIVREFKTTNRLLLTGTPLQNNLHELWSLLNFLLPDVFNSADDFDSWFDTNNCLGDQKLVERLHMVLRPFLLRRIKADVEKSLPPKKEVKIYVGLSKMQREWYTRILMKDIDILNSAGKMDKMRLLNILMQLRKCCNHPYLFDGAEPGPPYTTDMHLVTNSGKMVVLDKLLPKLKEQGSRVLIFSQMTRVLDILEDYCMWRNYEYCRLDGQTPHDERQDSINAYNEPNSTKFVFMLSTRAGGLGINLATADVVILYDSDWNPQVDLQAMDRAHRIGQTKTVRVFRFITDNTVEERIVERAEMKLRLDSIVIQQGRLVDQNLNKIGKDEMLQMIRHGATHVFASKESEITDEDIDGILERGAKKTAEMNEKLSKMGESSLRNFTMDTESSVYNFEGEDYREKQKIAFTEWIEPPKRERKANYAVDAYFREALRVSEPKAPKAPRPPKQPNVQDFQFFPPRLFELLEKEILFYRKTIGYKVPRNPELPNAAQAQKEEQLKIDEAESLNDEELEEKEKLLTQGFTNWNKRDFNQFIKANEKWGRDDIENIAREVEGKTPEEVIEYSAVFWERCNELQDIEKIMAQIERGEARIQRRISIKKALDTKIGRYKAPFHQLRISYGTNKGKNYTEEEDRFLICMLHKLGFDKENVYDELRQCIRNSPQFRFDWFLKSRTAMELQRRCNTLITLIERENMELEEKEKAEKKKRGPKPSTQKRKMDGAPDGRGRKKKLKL
UniProt Q99523, whole entry, looked up: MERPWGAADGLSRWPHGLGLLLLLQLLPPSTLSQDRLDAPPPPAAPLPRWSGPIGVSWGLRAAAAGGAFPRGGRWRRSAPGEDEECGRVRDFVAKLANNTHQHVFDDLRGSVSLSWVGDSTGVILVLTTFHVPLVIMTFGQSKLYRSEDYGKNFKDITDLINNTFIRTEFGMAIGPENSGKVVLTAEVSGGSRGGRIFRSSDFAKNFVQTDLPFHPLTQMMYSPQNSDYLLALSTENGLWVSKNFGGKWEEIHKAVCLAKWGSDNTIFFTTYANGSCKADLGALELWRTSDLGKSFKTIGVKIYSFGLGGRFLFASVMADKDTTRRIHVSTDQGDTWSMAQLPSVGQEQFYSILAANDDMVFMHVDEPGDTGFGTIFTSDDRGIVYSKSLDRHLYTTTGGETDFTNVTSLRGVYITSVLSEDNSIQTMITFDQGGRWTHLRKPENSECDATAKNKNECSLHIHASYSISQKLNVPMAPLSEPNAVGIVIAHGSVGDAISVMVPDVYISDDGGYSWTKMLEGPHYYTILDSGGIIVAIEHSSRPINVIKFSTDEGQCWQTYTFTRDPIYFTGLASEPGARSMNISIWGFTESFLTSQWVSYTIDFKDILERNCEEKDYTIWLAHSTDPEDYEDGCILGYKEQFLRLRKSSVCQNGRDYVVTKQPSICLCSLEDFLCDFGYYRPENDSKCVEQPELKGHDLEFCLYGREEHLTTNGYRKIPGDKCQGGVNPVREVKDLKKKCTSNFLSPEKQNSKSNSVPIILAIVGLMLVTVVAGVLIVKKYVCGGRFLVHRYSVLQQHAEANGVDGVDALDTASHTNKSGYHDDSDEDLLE

How the values were obtained:
Assay in all cases: log2 fold change, soluble protein after heating vs DMSO (PISA); higher = thermal stabilisation; K562 cells, 10 uM, 30 min; active = over 0.2 and 3.5 SD of the protein, either way, in both replicates (recomputed)
[1] = compound: C1=CC=C(C=C1)[C@H](COC2=CC3=C(C=C2)NC(=O)N3)NC(=O)C4=CC=CN(C4=O)CC5=CC(=C(C=C5)F)F
Procedure, shortened: (§1)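 For each measurement, 10 μM compound was applied for 30 min to K562 cells at 2×10^6 cells/mL. Aliquots were heated for 3 min across 48°C-58°C, pooled, and extracted in PBS with 0.5% NP-40 at 4°C; the supernatant after 21,000xg for 90 min was soluble protein. This was quantified by TMTpro 16plex LC-MS/MS with channel sums equalised, and thermal stability was reported relative to control samples from duplicates, on a log2 fold-change scale.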

[2] = compound: CC1=C(SC2=C1C(=N[C@H](C3=NN=C(N32)C)CC(=O)N)C4=CC=C(C=C4)Cl)C
Procedure, shortened: as §1

[3] = compound: CC1=C2C(=CC=C1)N=C(N(C2=O)C3=CC=CC=C3C)CN4C=NC5=C(N=CN=C54)N
Procedure, shortened: as §1

[4] = compound: Cc1sc2c(c1C)C(c1ccc(Cl)cc1)=N[C@@H](CC(=O)OC(C)(C)C)c1nnc(C)n1-2
Procedure, shortened: as §1

[5] = compound: c1ccc([C@@H]2C[C@H]2NC2CCNCC2)cc1
Procedure, shortened: as §1

Measured: log2 fold change

SMG8 isoform 2 (UniProt Q8ND04)
inactive: [1] -0.002 | [2] 0.108 | [3] 0.144 | [4] -0.049 | [5] 0.044

SNRPG (UniProt P62308)
inactive: [1] 0.026 | [2] 0.015 | [3] 0.021 | [4] 0.099 | [5] 0.059

SNX13 (UniProt Q9Y5W8)
inactive: [1] -0.081

SNTA1 (UniProt Q13424)
inactive: [1] 0.023 | [2] 0.06 | [3] 0.058 | [4] 0.118 | [5] 0.043

SNRPB isoform 3 (UniProt P14678)
inactive: [1] 0.027 | [2] -0.073 | [3] -0.061 | [4] 0.08 | [5] 0.033

SNRPA (UniProt P09012)
inactive: [1] 0.088 | [2] -0.036 | [3] -0.037 | [4] 0.123 | [5] 0.059

SNTB2 (UniProt Q13425)
inactive: [1] -0.128 | [2] 0.071 | [3] 0.092 | [4] -0.039 | [5] 0.041

SNRPF (UniProt P62306)
inactive: [1] -0.053 | [2] -0.065 | [3] -0.224 | [4] 0.109 | [5] 0.098

SMAD4 (UniProt Q13485)
inactive: [1] -0.015 | [2] 0.038 | [3] 0.058 | [4] -0.027 | [5] -0.004

SNRPB2 (UniProt P08579)
inactive: [1] 0.083 | [2] 0.002 | [3] -0.044 | [4] 0.07 | [5] 0.02

SNAP91 (UniProt O60641)
inactive: [1] 0.051 | [2] 0.011 | [3] -0.121 | [4] -0.023 | [5] 0.02

SNRNP40 (UniProt Q96DI7)
inactive: [1] 0.054 | [2] -0.023 | [3] 0.007 | [4] 0.071 | [5] 0.022

SMIM12 (UniProt Q96EX1)
inactive: [1] 0.015 | [2] 0.135 | [3] 0.275 | [4] -0.15 | [5] -0.055

SNRPD1 (UniProt P62314)
inactive: [1] 0.007 | [2] 0.045 | [3] -0.004 | [4] 0.071 | [5] 0.049

SMC2 (UniProt O95347)
inactive: [1] -0.024 | [2] 0.008 | [3] 0.031 | [4] 0.031 | [5] -0.015

SMR3B (UniProt P02814)
inactive: [1] -0.064

SMARCA2 (UniProt P51531)
inactive: [1] 0.084

SMU1 isoform 2 (UniProt Q2TAY7)
inactive: [1] -0.207

SMG9 (UniProt Q9H0W8)
inactive: [1] -0.01 | [2] 0.049 | [3] 0.057 | [4] 0.044 | [5] -0.071

SMNDC1 (UniProt O75940)
inactive: [1] 0.072 | [2] 0.015 | [3] -0.066 | [4] 0.047 | [5] 0.044

SMDT1 (UniProt Q9H4I9)
inactive: [1] 0.031 | [2] 0.018 | [3] -0.081 | [4] -0.019 | [5] 0.024

SMIM13 (UniProt P0DJ93)
inactive: [1] 0.052

SMIM11A (UniProt P58511)
inactive: [1] 0.111

SPAG9 isoform 4 (UniProt O60271)
inactive: [1] 0.15 | [2] 0.006 | [3] -0.048 | [4] 0.028 | [5] 0.025

SMU1 (UniProt Q2TAY7)
inactive: [1] 0.012 | [2] 0.017 | [3] -0.072 | [4] -0.024 | [5] 0.049

SMARCC2 (UniProt Q8TAQ2)
inactive: [1] -0.118 | [2] 0.016 | [3] 0.033 | [4] -0.018 | [5] -0.072

SMC3 (UniProt Q9UQE7)
inactive: [1] -0.014 | [2] 0.031 | [3] 0.058 | [4] 0.005 | [5] 0.002

SORBS3 (UniProt O60504)
inactive: [1] -0.074

SLC9A6 isoform 2 (UniProt Q92581)
inactive: [1] -0.007 | [2] 0.066 | [3] 0.068 | [4] -0.014 | [5] 0.047

SPAG9 (UniProt O60271)
inactive: [1] -0.033 | [2] 0.002 | [3] 0.071 | [4] 0.024 | [5] -0.006

SNX9 (UniProt Q9Y5X1)
inactive: [1] -0.051 | [2] 0.019 | [3] 0.048 | [4] 0.002 | [5] 0.017

SNCA (UniProt P37840)
inactive: [1] 0.055 | [2] 0.086 | [3] 0.017 | [4] -0.046 | [5] 0.007

SNX1 (UniProt Q13596)
inactive: [1] -0.019 | [2] 0.029 | [3] 0.038 | [4] -0.003 | [5] -0.07

SNUPN (UniProt O95149)
inactive: [1] -0.027 | [2] 0.051 | [3] 0.067 | [4] 0.03 | [5] 0.021

SOX7 isoform 2 (UniProt Q9BT81)
inactive: [1] 0.112 | [2] -0.26 | [3] -0.205 | [4] 0.181 | [5] 0.03

SP6 (UniProt Q3SY56)
inactive: [1] -0.009 | [2] -0.037 | [3] -0.295 | [4] -0.124 | [5] 0

SMARCA5 (UniProt O60264)
inactive: [1] -0.168 | [2] 0.063 | [3] 0.105 | [4] -0.026 | [5] -0.006

SMARCAD1 isoform 2 (UniProt Q9H4L7)
inactive: [1] -0.029 | [2] 0.071 | [3] 0.214 | [4] -0.129 | [5] 0.004

SLC7A6 (UniProt Q92536)
inactive: [1] -0.063 | [2] 0.023 | [3] 0.053 | [4] 0.012 | [5] 0.06

SMC4 (UniProt Q9NTJ3)
inactive: [1] -0.035 | [2] 0.028 | [3] 0.051 | [4] 0.029 | [5] -0.009

SOD1 (UniProt P00441)
inactive: [1] 0.028 | [2] 0.111 | [3] 0.041 | [4] -0.005 | [5] 0.039

SNX3 (UniProt O60493)
inactive: [1] -0.057 | [2] 0 | [3] 0.105 | [4] -0.006 | [5] -0.064

SORT1 (UniProt Q99523)
inactive: [1] 0.029 | [2] -0.01 | [3] -0.03 | [4] 0.027 | [5] 0.009

3 consecutive entries out of the list so far, quoted:
SOD1 (UniProt P00441)
inactive: [1] 0.028 | [2] 0.111 | [3] 0.041 | [4] -0.005 | [5] 0.039

SNX3 (UniProt O60493)
inactive: [1] -0.057 | [2] 0 | [3] 0.105 | [4] -0.006 | [5] -0.064

SORT1 (UniProt Q99523)
inactive: [1] 0.029 | [2] -0.01 | [3] -0.03 | [4] 0.027 | [5] 0.009

Further entries follow:

SNRPC (UniProt P09234)
inactive: [1] 0.046 | [2] -0.01 | [3] -0.182 | [4] 0.032 | [5] 0.059

SNX12 isoform 1 (UniProt Q9UMY4)
inactive: [1] 0.016 | [2] -0.009 | [3] 0.095 | [4] 0.026 | [5] 0.02

SPA17 (UniProt Q15506)
inactive: [1] 0.051 | [2] 0.083 | [3] 0.053 | [4] 0.029 | [5] -0.01

SNRNP70 (UniProt P08621)
inactive: [1] 0.099 | [2] -0.126 | [3] -0.09 | [4] 0.168 | [5] 0.007

SNRPD2 (UniProt P62316)
inactive: [1] 0.016 | [2] -0.049 | [3] -0.085 | [4] 0.079 | [5] 0.044

SLC9A3R1 (UniProt O14745)
inactive: [1] 0.022 | [2] 0.023 | [3] -0.01 | [4] 0 | [5] -0.002

SMYD2 (UniProt Q9NRG4)
inactive: [1] 0.018 | [2] -0.096 | [3] 0.086 | [4] -0.056 | [5] 0.065

SP100 isoform 4 (UniProt P23497)
inactive: [1] -0.006 | [2] -0.015 | [3] -0.047 | [4] 0 | [5] 0.024

SND1 (UniProt Q7KZF4)
inactive: [1] 0.08 | [2] -0.22 | [3] -0.144 | [4] 0.356 | [5] -0.002

SMIM8 (UniProt Q96KF7)
inactive: [1] 0.085 | [2] 0.096 | [3] 0.132 | [4] -0.015 | [5] 0.011

SMIM26, A0A096LP01
inactive: [1] -0.029 | [2] -0.014 | [3] 0.017 | [4] 0.154 | [5] 0.024

SMPD2 (UniProt O60906)
inactive: [1] -0.008 | [2] -0.01 | [3] 0.125 | [4] -0.072 | [5] 0.102

SMIM20 isoform 2 (UniProt Q8N5G0)
inactive: [1] 0.019 | [2] -0.034 | [3] 0.081 | [4] -0.125 | [5] -0.1

SPAG7 (UniProt O75391)
inactive: [1] 0.021 | [2] 0.071 | [3] 0.007 | [4] -0.019 | [5] 0.015
